# Measured values published in the supplement of paper PMC10849652.
# Chains of the proteins cited; added tags and fusions are not shown. Lines headed by an entry give the natural chain unless they say otherwise; changes in a name come on top.
# UniProt Q8TBE9: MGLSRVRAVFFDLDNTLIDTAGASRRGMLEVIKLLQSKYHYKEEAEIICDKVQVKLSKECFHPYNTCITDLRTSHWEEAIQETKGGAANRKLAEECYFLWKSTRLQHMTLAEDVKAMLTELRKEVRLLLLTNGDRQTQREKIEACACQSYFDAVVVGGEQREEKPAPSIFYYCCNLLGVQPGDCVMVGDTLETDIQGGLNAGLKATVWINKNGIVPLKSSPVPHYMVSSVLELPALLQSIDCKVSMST
# UniProt Q9BQ15: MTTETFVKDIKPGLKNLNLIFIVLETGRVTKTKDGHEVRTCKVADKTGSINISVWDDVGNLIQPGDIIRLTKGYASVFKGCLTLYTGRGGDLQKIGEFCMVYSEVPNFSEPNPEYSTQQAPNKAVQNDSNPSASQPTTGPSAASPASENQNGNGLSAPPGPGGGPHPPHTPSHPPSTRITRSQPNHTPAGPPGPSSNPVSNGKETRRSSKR
# UniProt Q13075: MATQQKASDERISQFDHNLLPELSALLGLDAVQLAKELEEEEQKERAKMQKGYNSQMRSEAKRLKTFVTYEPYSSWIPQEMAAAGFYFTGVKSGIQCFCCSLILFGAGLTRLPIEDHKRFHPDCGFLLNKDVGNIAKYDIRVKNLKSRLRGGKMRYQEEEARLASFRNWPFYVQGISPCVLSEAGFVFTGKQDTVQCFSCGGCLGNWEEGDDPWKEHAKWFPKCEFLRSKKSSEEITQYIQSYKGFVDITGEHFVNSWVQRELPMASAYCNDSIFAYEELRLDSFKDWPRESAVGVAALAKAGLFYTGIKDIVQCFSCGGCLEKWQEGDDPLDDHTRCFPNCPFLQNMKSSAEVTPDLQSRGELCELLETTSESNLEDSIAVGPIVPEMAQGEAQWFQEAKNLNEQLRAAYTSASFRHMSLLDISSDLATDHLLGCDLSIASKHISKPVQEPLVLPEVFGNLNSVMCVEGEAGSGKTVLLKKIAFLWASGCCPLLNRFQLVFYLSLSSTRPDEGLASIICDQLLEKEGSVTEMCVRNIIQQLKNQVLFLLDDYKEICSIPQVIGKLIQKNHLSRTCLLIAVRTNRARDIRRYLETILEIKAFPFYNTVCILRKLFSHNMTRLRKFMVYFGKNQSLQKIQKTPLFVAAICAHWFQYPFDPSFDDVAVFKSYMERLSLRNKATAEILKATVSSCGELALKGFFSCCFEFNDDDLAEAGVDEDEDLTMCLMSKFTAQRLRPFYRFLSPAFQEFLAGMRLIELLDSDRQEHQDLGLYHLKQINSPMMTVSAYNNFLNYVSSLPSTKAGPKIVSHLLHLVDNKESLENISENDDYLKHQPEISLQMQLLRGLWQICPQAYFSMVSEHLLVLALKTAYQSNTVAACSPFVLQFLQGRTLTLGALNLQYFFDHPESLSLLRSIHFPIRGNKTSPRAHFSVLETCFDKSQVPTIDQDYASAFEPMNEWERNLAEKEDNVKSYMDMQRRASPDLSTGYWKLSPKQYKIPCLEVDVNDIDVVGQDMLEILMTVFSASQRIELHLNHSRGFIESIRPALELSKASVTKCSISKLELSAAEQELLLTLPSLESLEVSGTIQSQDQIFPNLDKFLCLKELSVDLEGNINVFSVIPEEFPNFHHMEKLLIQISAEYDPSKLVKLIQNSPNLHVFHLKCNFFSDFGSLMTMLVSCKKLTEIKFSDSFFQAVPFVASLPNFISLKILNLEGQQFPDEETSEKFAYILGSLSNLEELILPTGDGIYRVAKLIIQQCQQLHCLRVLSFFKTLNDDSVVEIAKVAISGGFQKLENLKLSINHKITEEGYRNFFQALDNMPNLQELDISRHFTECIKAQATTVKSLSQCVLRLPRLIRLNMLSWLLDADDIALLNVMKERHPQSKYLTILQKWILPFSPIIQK
# UniProt Q6ZVX7: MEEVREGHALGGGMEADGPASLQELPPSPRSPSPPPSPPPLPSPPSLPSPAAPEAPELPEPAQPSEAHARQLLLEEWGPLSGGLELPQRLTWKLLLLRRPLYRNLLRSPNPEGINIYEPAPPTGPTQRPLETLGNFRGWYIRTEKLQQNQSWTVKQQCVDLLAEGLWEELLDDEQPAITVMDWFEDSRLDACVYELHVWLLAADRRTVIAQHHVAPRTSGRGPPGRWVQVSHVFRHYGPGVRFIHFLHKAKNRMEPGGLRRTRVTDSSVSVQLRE
# UniProt O75438, whole entry, looked up: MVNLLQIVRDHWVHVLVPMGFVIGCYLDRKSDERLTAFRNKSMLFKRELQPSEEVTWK
# UniProt Q9UK23: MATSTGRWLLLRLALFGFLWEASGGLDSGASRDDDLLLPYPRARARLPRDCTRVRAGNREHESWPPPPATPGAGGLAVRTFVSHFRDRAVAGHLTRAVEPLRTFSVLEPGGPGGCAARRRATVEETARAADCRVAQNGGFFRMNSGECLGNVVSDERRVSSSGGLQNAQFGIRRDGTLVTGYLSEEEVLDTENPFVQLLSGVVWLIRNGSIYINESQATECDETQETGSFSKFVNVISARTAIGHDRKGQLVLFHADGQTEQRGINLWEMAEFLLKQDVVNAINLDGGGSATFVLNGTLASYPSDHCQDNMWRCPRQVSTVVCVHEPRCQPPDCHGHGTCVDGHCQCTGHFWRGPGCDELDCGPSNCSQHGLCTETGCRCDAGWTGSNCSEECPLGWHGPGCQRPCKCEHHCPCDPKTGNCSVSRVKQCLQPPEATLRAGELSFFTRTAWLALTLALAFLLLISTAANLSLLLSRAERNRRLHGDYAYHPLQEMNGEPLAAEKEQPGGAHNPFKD
# UniProt P52849: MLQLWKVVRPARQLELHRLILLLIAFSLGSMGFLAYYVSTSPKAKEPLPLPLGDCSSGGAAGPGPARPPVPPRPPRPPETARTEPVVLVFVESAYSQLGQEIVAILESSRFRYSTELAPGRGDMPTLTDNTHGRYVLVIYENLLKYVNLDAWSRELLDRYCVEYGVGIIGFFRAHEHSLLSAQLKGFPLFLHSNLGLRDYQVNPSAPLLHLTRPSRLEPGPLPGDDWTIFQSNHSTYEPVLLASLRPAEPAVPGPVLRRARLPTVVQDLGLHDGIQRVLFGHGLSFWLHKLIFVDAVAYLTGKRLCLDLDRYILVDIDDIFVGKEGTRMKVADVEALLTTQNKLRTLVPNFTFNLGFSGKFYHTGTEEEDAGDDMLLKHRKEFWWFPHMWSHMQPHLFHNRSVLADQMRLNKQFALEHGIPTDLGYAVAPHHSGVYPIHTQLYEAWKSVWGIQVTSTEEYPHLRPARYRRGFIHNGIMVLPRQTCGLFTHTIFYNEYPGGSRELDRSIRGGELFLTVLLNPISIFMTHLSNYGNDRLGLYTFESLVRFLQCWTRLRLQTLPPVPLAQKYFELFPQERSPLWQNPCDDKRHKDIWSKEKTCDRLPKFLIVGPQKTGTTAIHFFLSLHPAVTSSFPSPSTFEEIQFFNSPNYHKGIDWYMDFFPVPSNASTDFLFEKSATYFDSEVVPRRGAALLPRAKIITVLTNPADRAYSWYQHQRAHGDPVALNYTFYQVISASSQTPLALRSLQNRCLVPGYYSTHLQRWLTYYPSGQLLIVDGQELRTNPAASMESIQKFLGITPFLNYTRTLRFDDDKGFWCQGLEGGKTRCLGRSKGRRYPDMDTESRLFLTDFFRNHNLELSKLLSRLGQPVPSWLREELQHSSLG
# UniProt Q5VVJ2: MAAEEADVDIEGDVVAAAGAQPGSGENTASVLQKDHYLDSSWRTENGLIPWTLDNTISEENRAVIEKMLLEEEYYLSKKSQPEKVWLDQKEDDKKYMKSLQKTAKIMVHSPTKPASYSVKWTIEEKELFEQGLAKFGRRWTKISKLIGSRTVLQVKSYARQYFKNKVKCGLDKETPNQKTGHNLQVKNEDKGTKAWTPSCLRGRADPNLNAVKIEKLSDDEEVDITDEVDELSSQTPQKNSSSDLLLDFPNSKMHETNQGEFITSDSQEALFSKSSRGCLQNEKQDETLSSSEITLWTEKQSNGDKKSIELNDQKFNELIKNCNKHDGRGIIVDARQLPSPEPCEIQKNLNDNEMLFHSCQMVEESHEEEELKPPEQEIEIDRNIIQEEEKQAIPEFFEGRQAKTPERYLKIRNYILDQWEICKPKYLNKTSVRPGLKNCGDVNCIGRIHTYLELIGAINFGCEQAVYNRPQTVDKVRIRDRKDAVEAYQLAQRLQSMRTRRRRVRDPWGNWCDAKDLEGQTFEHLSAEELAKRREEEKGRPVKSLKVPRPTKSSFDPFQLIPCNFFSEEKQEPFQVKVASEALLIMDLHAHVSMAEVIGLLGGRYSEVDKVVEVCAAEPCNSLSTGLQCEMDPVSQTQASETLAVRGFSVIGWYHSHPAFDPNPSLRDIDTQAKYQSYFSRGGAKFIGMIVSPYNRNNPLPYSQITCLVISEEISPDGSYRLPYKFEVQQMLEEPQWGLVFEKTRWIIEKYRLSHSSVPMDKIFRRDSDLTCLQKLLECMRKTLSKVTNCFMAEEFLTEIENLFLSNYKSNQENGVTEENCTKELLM
# UniProt Q9NZM1: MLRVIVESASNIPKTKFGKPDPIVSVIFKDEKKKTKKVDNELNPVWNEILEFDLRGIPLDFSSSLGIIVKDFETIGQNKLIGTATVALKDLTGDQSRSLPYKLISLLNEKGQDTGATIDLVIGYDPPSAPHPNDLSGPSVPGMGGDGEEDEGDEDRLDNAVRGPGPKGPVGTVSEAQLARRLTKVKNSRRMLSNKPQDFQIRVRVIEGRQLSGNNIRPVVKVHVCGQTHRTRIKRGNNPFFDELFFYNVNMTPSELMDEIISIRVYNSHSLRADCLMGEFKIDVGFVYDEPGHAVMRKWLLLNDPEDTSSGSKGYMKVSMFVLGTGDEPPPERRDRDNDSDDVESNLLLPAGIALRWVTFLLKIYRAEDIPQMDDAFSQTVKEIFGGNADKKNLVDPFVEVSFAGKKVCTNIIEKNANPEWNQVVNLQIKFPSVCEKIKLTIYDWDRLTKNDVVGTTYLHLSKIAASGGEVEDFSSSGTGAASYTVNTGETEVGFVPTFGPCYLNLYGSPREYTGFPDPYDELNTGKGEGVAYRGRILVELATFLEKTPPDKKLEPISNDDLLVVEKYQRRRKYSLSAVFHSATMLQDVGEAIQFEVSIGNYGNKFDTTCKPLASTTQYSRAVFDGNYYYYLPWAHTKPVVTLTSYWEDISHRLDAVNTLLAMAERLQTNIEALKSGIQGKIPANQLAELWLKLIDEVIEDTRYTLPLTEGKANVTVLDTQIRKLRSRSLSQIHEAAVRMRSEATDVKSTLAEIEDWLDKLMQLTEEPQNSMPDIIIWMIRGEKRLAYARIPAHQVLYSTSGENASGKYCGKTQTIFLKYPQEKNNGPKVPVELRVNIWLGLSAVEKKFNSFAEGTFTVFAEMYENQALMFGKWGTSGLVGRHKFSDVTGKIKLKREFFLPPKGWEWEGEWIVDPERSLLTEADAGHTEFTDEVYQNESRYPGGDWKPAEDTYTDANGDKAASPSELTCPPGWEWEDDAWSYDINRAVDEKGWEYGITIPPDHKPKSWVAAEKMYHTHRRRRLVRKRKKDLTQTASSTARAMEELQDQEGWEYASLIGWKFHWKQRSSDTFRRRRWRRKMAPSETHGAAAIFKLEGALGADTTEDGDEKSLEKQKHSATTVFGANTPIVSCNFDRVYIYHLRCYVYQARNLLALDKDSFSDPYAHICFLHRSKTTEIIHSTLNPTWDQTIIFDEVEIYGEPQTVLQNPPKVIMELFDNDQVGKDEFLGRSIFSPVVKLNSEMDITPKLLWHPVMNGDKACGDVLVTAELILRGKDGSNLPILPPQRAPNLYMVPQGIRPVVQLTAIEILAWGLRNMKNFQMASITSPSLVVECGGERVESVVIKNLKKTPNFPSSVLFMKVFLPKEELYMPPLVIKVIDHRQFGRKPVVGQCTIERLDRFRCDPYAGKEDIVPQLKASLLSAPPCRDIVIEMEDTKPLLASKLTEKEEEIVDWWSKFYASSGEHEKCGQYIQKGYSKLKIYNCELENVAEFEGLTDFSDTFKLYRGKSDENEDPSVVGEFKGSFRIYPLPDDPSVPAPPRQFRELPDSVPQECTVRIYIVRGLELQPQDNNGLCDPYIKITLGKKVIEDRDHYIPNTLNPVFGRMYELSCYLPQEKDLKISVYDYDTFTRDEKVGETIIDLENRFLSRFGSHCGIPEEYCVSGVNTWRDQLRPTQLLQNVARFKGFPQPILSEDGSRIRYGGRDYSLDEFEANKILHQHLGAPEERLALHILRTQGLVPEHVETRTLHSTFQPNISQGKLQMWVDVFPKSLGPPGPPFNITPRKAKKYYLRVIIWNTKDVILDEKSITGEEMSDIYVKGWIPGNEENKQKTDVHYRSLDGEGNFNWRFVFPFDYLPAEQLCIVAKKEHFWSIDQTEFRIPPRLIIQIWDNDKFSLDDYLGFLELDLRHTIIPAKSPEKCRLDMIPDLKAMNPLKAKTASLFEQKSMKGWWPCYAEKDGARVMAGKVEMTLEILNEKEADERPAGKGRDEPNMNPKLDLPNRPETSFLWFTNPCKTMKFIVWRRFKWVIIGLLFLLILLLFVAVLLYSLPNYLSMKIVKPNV
# This is one part of the list.
# Columns and labels:
# Assay in all cases: log2 fold change, soluble protein after heating vs DMSO (PISA); higher = thermal stabilisation; K562 cells, 10 uM, 30 min; active = over 0.2 and 3.5 SD of the protein, either way, in both replicates (recomputed)
# [1] = compound: CC1=C(C=C(C=C1)NC(=O)C2=CC(=CC=C2)C(C)(C)C#N)NC3=CC4=C(C=C3)N=CN(C4=O)C
# Procedure, shortened: (§1)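 Values are thermal stability changes relative to control samples and are taken from duplicates. They are stated as log2 fold changes. Before quantification by TMTpro 16plex LC-MS/MS with equalised channel sums, K562 cells at 2×10^6 cells/mL were treated with 10 μM compound for 30 min, heated in aliquots for 3 min across 48°C-58°C, pooled, extracted in PBS with 0.5% NP-40 at 4°C, and centrifuged at 21,000xg for 90 min to give the soluble supernatant.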
# [2] = compound: CC1=NC(=CC=C1)C2=C(N=C(N2)C(C)(C)C)C3=CC4=NC=CN=C4C=C3
# Procedure, shortened: as §1
# [3] = compound: CN1C2=C(C3=C1C(=O)N(N=C3)CC4=CC(=CC=C4)N)SC(=C2)S(=O)C
# Procedure, shortened: as §1
# [4] = compound: CC1=CC=C(C=C1)SC2=C3C=C(SC3=CN=C2)C(=O)N
# Procedure, shortened: as §1
# [5] = compound: CCCCN(Cc1ccc(C(=O)NO)cc1)C(=O)Nc1ccccc1 [Nexturastat A]
# Procedure, shortened: as §1
# [6] = compound: CCCS(=O)(=O)Nc1ccc(F)c(C(=O)c2c[nH]c3ncc(-c4ccc(Cl)cc4)cc23)c1F [vemurafenib]
# Procedure, shortened: as §1
# [7] = compound: CCCS(=O)(=O)Nc1ccc(F)c(C(=O)c2c[nH]c3ncc(Cl)cc23)c1F
# Procedure, shortened: as §1
# [8] = compound: CCCc1cc(C)[nH]c(=O)c1CNC(=O)c1cc(-c2ccnc(N3CCN(C)CC3)c2)cc2c1cnn2C(C)C
# Procedure, shortened: as §1
# [9] = compound: CCN(CC)Cc1ccc2cc(COC(=O)Nc3ccc(C(=O)NO)cc3)ccc2c1 [givinostat]
# Procedure, shortened: as §1
# [10] = compound: CCN(CCCOc1ccc2c(Nc3cc(CC(=O)Nc4cccc(F)c4)[nH]n3)ncnc2c1)CCOP(=O)(O)O [barasertib]
# Procedure, shortened: as §1
# [11] = compound: CC[C@@H]1C(=O)N(C)c2cnc(Nc3ccc(C(=O)NC4CCN(C)CC4)cc3OC)nc2N1C1CCCC1
# Procedure, shortened: as §1
# [12] = compound: CC[C@@H]1C(=O)N(C)c2cnc(Nc3ccc(C(=O)N[C@H]4CC[C@H](N5CCN(CC6CC6)CC5)CC4)cc3OC)nc2N1C(C)C [volasertib]
# Procedure, shortened: as §1
# [13] = compound: CC[C@H](C)N1C=C(C2=C(C=C(C=C21)C3=CN=C(C=C3)N4CCNCC4)C(=O)NCC5=C(C=C(NC5=O)C)C)C
# Procedure, shortened: as §1
# [14] = compound: CC[C@H](C)[C@@H](C(=O)N[C@@H]([C@@H](C)O)C(=O)N[C@@H](CC(C)C)C(=O)[C@]1(CO1)C)NC(=O)[C@H]([C@@H](C)CC)N(C)C(=O)C [epoxomicin]
# Procedure, shortened: as §1
# [15] = compound: CCn1c(C(=O)N(C2CC2)C2CC2)cc2c3c(ncn3C)c(Nc3cc(C)n(C)n3)nc21
# Procedure, shortened: as §1
# [16] = compound: CCn1cc(-c2ccnc3[nH]c(-c4cccc(CN(C)C)c4)cc23)c(-c2ccc(NC(=O)N(C)C)cc2)n1
# Procedure, shortened: as §1
# [17] = compound: CN(C)CC(=O)Nc1ccc2[nH]c(=O)c3ccccc3c2c1
# Procedure, shortened: as §1
# [18] = compound: CN(CCOC1=CC=C(C=C1)C[C@H]2C(=O)NC(=O)S2)C3=CC=CC=N3 (racemic) [rosiglitazone]
# Procedure, shortened: as §1
# [19] = compound: CN1CCC(CNc2ccc3ncc(-c4cccc(OC(F)(F)F)c4)n3n2)CC1
# Procedure, shortened: as §1
# [20] = compound: CC1=C(C=C(C=C1)NC(=O)C2=CC(=CC=C2)N(C)C)NC(=O)C3=CC=C(C=C3)O
# Procedure, shortened: as §1
target,measurement,setting,value
NAP1L4 (UniProt C9J6D1),log2 fold change,[1],inactive: -0.258
same,log2 fold change,[2],inactive: -0.243
same,log2 fold change,[3],inactive: 0.051
NANP (UniProt Q8TBE9),log2 fold change,[1],inactive: 0.021
same,log2 fold change,[4],inactive: 0.005
same,log2 fold change,[5],inactive: -0.035
same,log2 fold change,[6],inactive: -0.017
same,log2 fold change,[7],inactive: -0.06
same,log2 fold change,[8],inactive: -0.084
same,log2 fold change,[9],inactive: -0.019
same,log2 fold change,[10],inactive: 0.04
same,log2 fold change,[11],inactive: 0.12
same,log2 fold change,[12],inactive: 0.028
same,log2 fold change,[13],inactive: -0.004
same,log2 fold change,[14],inactive: -0.031
same,log2 fold change,[15],inactive: -0.046
same,log2 fold change,[16],inactive: 0.023
same,log2 fold change,[17],inactive: 0
same,log2 fold change,[18],inactive: 0.051
same,log2 fold change,[3],inactive: -0.045
same,log2 fold change,[19],inactive: 0.047
NABP2 (UniProt Q9BQ15),log2 fold change,[3],inactive: -0.218
NCAPH2 isoform 4 (UniProt Q6IBW4),log2 fold change,[2],inactive: 0.036
same,log2 fold change,[5],inactive: 0.155
same,log2 fold change,[8],inactive: 0.119
same,log2 fold change,[9],inactive: 0.091
same,log2 fold change,[11],inactive: -0.175
same,log2 fold change,[13],inactive: -0.119
same,log2 fold change,[14],inactive: 0.144
same,log2 fold change,[15],inactive: 0.053
NAIP (UniProt Q13075),log2 fold change,[20],inactive: 0.019
same,log2 fold change,[4],inactive: -0.419
same,log2 fold change,[2],inactive: -0.306
same,log2 fold change,[7],inactive: -0.562
same,log2 fold change,[9],inactive: 0.142
same,log2 fold change,[12],inactive: 0.075
same,log2 fold change,[15],inactive: 0
NCCRP1 (UniProt Q6ZVX7),log2 fold change,[2],inactive: -0.025
same,log2 fold change,[5],inactive: -0.392
same,log2 fold change,[6],inactive: 0.237
same,log2 fold change,[8],inactive: -0.095
same,log2 fold change,[11],inactive: 0.223
same,log2 fold change,[14],inactive: 0.068
same,log2 fold change,[17],inactive: 0.452
same,log2 fold change,[3],inactive: 0.683
NEK1 isoform 3 (UniProt Q96PY6),log2 fold change,[20],inactive: -0.011
same,log2 fold change,[2],inactive: -0.072
same,log2 fold change,[6],inactive: 0.073
same,log2 fold change,[9],inactive: 0.049
same,log2 fold change,[15],inactive: -0.233
same,log2 fold change,[17],inactive: -0.076
same,log2 fold change,[3],inactive: 0
NDUFB1 (UniProt O75438),log2 fold change,[1],inactive: -0.087
same,log2 fold change,[4],inactive: -0.08
same,log2 fold change,[2],inactive: 0.067
same,log2 fold change,[5],inactive: 0.027
same,log2 fold change,[6],inactive: -0.001
same,log2 fold change,[7],inactive: 0.065
same,log2 fold change,[8],inactive: 0.025
same,log2 fold change,[9],inactive: -0.015
same,log2 fold change,[10],inactive: -0.009
same,log2 fold change,[11],inactive: -0.004
same,log2 fold change,[12],inactive: -0.08
same,log2 fold change,[13],inactive: -0.099
same,log2 fold change,[14],active: 0.396
same,log2 fold change,[16],inactive: -0.102
same,log2 fold change,[17],inactive: 0.006
same,log2 fold change,[19],active: 0.282
NEB isoform 3 (UniProt P20929),log2 fold change,[20],inactive: -0.077
same,log2 fold change,[5],inactive: 0.245
same,log2 fold change,[6],inactive: -0.11
same,log2 fold change,[9],inactive: 0.011
same,log2 fold change,[10],inactive: 0.124
same,log2 fold change,[11],inactive: -0.302
same,log2 fold change,[13],inactive: 0.106
same,log2 fold change,[14],inactive: 0.079
same,log2 fold change,[15],inactive: 0.017
same,log2 fold change,[16],inactive: 0.047
same,log2 fold change,[17],inactive: 0.133
same,log2 fold change,[18],inactive: -0.059
same,log2 fold change,[3],inactive: -0.054
same,log2 fold change,[19],inactive: -0.055
NAGPA (UniProt Q9UK23),log2 fold change,[1],inactive: -0.028
same,log2 fold change,[4],inactive: -0.004
same,log2 fold change,[2],inactive: 0.054
same,log2 fold change,[5],inactive: -0.131
same,log2 fold change,[7],inactive: -0.067
same,log2 fold change,[8],inactive: -0.066
same,log2 fold change,[9],inactive: 0.002
same,log2 fold change,[10],inactive: -0.133
same,log2 fold change,[11],inactive: 0.213
same,log2 fold change,[12],active: 0.555
same,log2 fold change,[13],inactive: -0.065
same,log2 fold change,[14],inactive: 0.071
same,log2 fold change,[16],inactive: 0.084
same,log2 fold change,[3],inactive: -0.084
same,log2 fold change,[19],inactive: -0.083
NDST2 (UniProt P52849),log2 fold change,[1],inactive: -0.125
same,log2 fold change,[20],inactive: 0.03
same,log2 fold change,[2],inactive: -0.031
same,log2 fold change,[5],inactive: -0.019
same,log2 fold change,[6],inactive: -0.009
same,log2 fold change,[8],inactive: 0.026
same,log2 fold change,[9],inactive: 0.133
same,log2 fold change,[10],inactive: 0.199
same,log2 fold change,[13],inactive: 0.055
same,log2 fold change,[14],inactive: 0.002
same,log2 fold change,[15],inactive: 0.001
same,log2 fold change,[17],inactive: 0.091
same,log2 fold change,[18],inactive: 0.007
MYSM1 (UniProt Q5VVJ2),log2 fold change,[1],inactive: 0.067
same,log2 fold change,[20],inactive: -0.298
same,log2 fold change,[2],inactive: 0.006
same,log2 fold change,[10],inactive: -0.114
same,log2 fold change,[11],inactive: -0.17
NCKIPSD (UniProt Q9NZQ3),log2 fold change,[20],inactive: 0.006
same,log2 fold change,[4],inactive: 0.076
same,log2 fold change,[6],inactive: 0.106
same,log2 fold change,[7],inactive: 0.119
same,log2 fold change,[9],inactive: 0.288
same,log2 fold change,[12],inactive: -0.495
same,log2 fold change,[15],inactive: -0.112
same,log2 fold change,[16],inactive: 0.006
same,log2 fold change,[17],inactive: 0.182
same,log2 fold change,[19],inactive: -0.101
NDUFA7 (UniProt M0R0N0),log2 fold change,[1],inactive: -0.011
same,log2 fold change,[6],inactive: -0.195
same,log2 fold change,[9],inactive: 0.104
same,log2 fold change,[10],inactive: 0.052
same,log2 fold change,[17],inactive: -0.092
NAA40 (UniProt Q86UY6),log2 fold change,[20],inactive: 0.063
same,log2 fold change,[2],inactive: -0.063
same,log2 fold change,[5],inactive: 0.157
same,log2 fold change,[6],inactive: -0.037
same,log2 fold change,[11],inactive: -0.021
same,log2 fold change,[14],inactive: -0.241
same,log2 fold change,[16],inactive: 0.156
same,log2 fold change,[17],inactive: 0.021
same,log2 fold change,[19],inactive: -0.02
"NA, A0A1W2PSA9",log2 fold change,[20],inactive: 0.108
same,log2 fold change,[16],inactive: 0.08
same,log2 fold change,[3],inactive: 0.279
same,log2 fold change,[19],inactive: 0.057
NDUFV1 (UniProt E9PJL9),log2 fold change,[1],inactive: 0.258
same,log2 fold change,[4],inactive: 0.051
same,log2 fold change,[2],inactive: 0.089
same,log2 fold change,[6],inactive: 0.005
same,log2 fold change,[7],inactive: -0.066
same,log2 fold change,[8],inactive: -0.052
same,log2 fold change,[10],inactive: -0.177
same,log2 fold change,[12],inactive: -0.046
same,log2 fold change,[13],inactive: -0.001
same,log2 fold change,[17],inactive: -0.295
same,log2 fold change,[18],inactive: 0.056
MYOF (UniProt Q9NZM1),log2 fold change,[3],inactive: -0.183

# Quoted at random: five entries already listed.
target,measurement,setting,value
"NA, A0A1W2PSA9",log2 fold change,[3],inactive: 0.279
NAGPA (UniProt Q9UK23),log2 fold change,[5],inactive: -0.131
NAIP (UniProt Q13075),log2 fold change,[15],inactive: 0
MYSM1 (UniProt Q5VVJ2),log2 fold change,[2],inactive: 0.006
NANP (UniProt Q8TBE9),log2 fold change,[9],inactive: -0.019

# Some of the entries so far, as tab-separated lines.
target	measurement	setting	value
NAGPA (UniProt Q9UK23)	log2 fold change	[4]	inactive: -0.004
same	log2 fold change	[2]	inactive: 0.054
